Record: PubChem BioAssay AID504784 (Drosophila RNAi Screening Center, 2011)
Test: 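Search for regulators of lipid droplet storage in oleate-fed fly cells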 (primary screen). Cells: Drosophila Kc167 embryonic cells. Reagents: long dsRNA against Drosophila genes, about 250 ng dsRNA per well. Time to read-out: 4 days. Conditions: cells fed 400 µM oleic acid bound to BSA. Read-out: 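Microscope images give a droplet-to-nucleus area ratio, taken as log and converted to a screen-wide B-score; higher values mean greater lipid storage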. Scale: droplet/nuclear area B-score: higher = more stored lipid (overstorage).
The screen tested about 17,000 reagents; shown is an unselected part of those with a known target gene and a result. 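Each column is one replicate's B-score; the combined score over replicates was not deposited, so single values may mislead.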 Names joined by + are all predicted targets of the reagent. Not all columns of the deposit are shown.

{"target": "spd-2 (GeneID 39850)", "DRSC id": "DRSC09682", "droplet/nuclear area B-score, replicate 1": -0.00221}
{"target": "CG9287 (GeneID 34194)", "DRSC id": "DRSC03186", "droplet/nuclear area B-score, replicate 1": -0.238}
{"target": "CG9287 (GeneID 34194)", "DRSC id": "DRSC22790", "droplet/nuclear area B-score, replicate 1": 1.71}
{"target": "CG32104 (GeneID 39413)", "DRSC id": "DRSC10127", "droplet/nuclear area B-score, replicate 1": -0.22}
{"target": "CG32104 (GeneID 39413)", "DRSC id": "DRSC10128", "droplet/nuclear area B-score, replicate 1": -0.478}
{"target": "CG17221 (GeneID 33521)", "DRSC id": "DRSC00487", "droplet/nuclear area B-score, replicate 1": 0.0822}
{"target": "rasp (GeneID 44098)", "DRSC id": "DRSC08191", "droplet/nuclear area B-score, replicate 1": 0.468}
{"target": "CG14982 (GeneID 38464)", "DRSC id": "DRSC08440", "droplet/nuclear area B-score, replicate 1": -0.736}
{"target": "CG14982 (GeneID 38464)", "DRSC id": "DRSC23022", "droplet/nuclear area B-score, replicate 1": -0.0646}
{"target": "CG10725 (GeneID 39510)", "DRSC id": "DRSC09788", "droplet/nuclear area B-score, replicate 1": 2.42}
{"target": "Lsm12a (GeneID 32167)", "DRSC id": "DRSC19702", "droplet/nuclear area B-score, replicate 1": 1.23}
{"target": "tna (GeneID 39217)", "DRSC id": "DRSC10937", "droplet/nuclear area B-score, replicate 1": -1.77}
{"target": "tna (GeneID 39217)", "DRSC id": "DRSC23236", "droplet/nuclear area B-score, replicate 1": -0.702}
{"target": "CG31908 (GeneID 261613)", "DRSC id": "DRSC21864", "droplet/nuclear area B-score, replicate 1": -0.841}
{"target": "CG31908 (GeneID 261613)", "DRSC id": "DRSC23243", "droplet/nuclear area B-score, replicate 1": 0.0739}
{"target": "Drsl6 (GeneID 38416)", "DRSC id": "DRSC08161", "droplet/nuclear area B-score, replicate 1": -0.44}
{"target": "CG14258 (GeneID 43260)", "DRSC id": "DRSC14753", "droplet/nuclear area B-score, replicate 1": 0.312}
{"target": "l(2)10685 (GeneID 33293)", "DRSC id": "DRSC00665", "droplet/nuclear area B-score, replicate 1": 0.215}
{"target": "CG42496 + Ppcdc", "DRSC id": "DRSC03886", "droplet/nuclear area B-score, replicate 1": 2.62}
{"target": "Cpr67Fa2 (GeneID 39224)", "DRSC id": "DRSC10315", "droplet/nuclear area B-score, replicate 1": 0.133}
{"target": "CG18536 (GeneID 37093)", "DRSC id": "DRSC06763", "droplet/nuclear area B-score, replicate 1": -0.546}
{"target": "CG10459 (GeneID 36000)", "DRSC id": "DRSC05991", "droplet/nuclear area B-score, replicate 1": 1.84}
{"target": "CG10459 (GeneID 36000)", "DRSC id": "DRSC22092", "droplet/nuclear area B-score, replicate 1": -0.675}
{"target": "epsilonCOP (GeneID 33908)", "DRSC id": "DRSC02003", "droplet/nuclear area B-score, replicate 1": -0.496}
{"target": "t-Grip84 (GeneID 38852)", "DRSC id": "DRSC10904", "droplet/nuclear area B-score, replicate 1": -0.692}
{"target": "mas (GeneID 38499)", "DRSC id": "DRSC08720", "droplet/nuclear area B-score, replicate 1": 1.25}
{"target": "CG14669 (GeneID 40652)", "DRSC id": "DRSC12255", "droplet/nuclear area B-score, replicate 1": -1.75}
{"target": "CG1468 (GeneID 31920)", "DRSC id": "DRSC17946", "droplet/nuclear area B-score, replicate 1": -1.79}
{"target": "CG15873 (GeneID 37898)", "DRSC id": "DRSC04277", "droplet/nuclear area B-score, replicate 1": 1.56}
{"target": "sle (GeneID 41262)", "DRSC id": "DRSC14557", "droplet/nuclear area B-score, replicate 1": -0.0413}
{"target": "CG4880 (GeneID 32680)", "DRSC id": "DRSC19923", "droplet/nuclear area B-score, replicate 1": 1.94}
{"target": "CG18278 + CG30059", "DRSC id": "DRSC05418", "droplet/nuclear area B-score, replicate 1": 2.27}
{"target": "CG11504 (GeneID 43557)", "DRSC id": "DRSC14318", "droplet/nuclear area B-score, replicate 1": -5.58}
{"target": "Mettl3 (GeneID 42844)", "DRSC id": "DRSC15921", "droplet/nuclear area B-score, replicate 1": -0.253}
{"target": "mino (GeneID 43350)", "DRSC id": "DRSC14132", "droplet/nuclear area B-score, replicate 1": 1.11}
{"target": "Pex12 (GeneID 33256)", "DRSC id": "DRSC00622", "droplet/nuclear area B-score, replicate 1": 1.41}
{"target": "cort (GeneID 33937)", "DRSC id": "DRSC02148", "droplet/nuclear area B-score, replicate 1": 0.521}
{"target": "Su(z)2 (GeneID 36432)", "DRSC id": "DRSC07558", "droplet/nuclear area B-score, replicate 1": -0.0242}
{"target": "Su(z)2 (GeneID 36432)", "DRSC id": "DRSC22970", "droplet/nuclear area B-score, replicate 1": -2.31}
{"target": "CG5445 (GeneID 32722)", "DRSC id": "DRSC19943", "droplet/nuclear area B-score, replicate 1": 2.06}
{"target": "CG5445 (GeneID 32722)", "DRSC id": "DRSC23180", "droplet/nuclear area B-score, replicate 1": 0.012}
{"target": "Cul5 (GeneID 43434)", "DRSC id": "DRSC14723", "droplet/nuclear area B-score, replicate 1": -0.196}
{"target": "CG6415 (GeneID 34474)", "DRSC id": "DRSC02954", "droplet/nuclear area B-score, replicate 1": 0.0351}
{"target": "Muc4B (GeneID 31368)", "DRSC id": "DRSC18062", "droplet/nuclear area B-score, replicate 1": 0.303}
{"target": "Muc4B (GeneID 31368)", "DRSC id": "DRSC18063", "droplet/nuclear area B-score, replicate 1": -0.653}
{"target": "Med (GeneID 43725)", "DRSC id": "DRSC16737", "droplet/nuclear area B-score, replicate 1": -1.82}
{"target": "CG1701 (GeneID 35661)", "DRSC id": "DRSC06641", "droplet/nuclear area B-score, replicate 1": 0.058}
{"target": "aralar1 (GeneID 43616)", "DRSC id": "DRSC13987", "droplet/nuclear area B-score, replicate 1": -0.676}
{"target": "aralar1 (GeneID 43616)", "DRSC id": "DRSC16901", "droplet/nuclear area B-score, replicate 1": -0.399}
{"target": "RpS18 (GeneID 37292)", "DRSC id": "DRSC07540", "droplet/nuclear area B-score, replicate 1": 1.33}
{"target": "CG13653 (GeneID 43025)", "DRSC id": "DRSC14653", "droplet/nuclear area B-score, replicate 1": 0.77}
